In PubChem BioAssay AID493014 (National Center for Advancing Translational Sciences (NCATS), 2011):
The list shows a part of the results. Shown are side measurements of this screen, not its main read-out; they come without a call. Compounds called inactive in the main read-out are mostly missing here. Words in brackets tell the shape of the fitted curve; partial curves, single points and poor fits give uncertain potencies.

Experiment: qHTS Assay to Find Inhibitors of Chronic Active B-Cell Receptor Signaling
Settings: ABC-DLBCL IkBa-CBG/CBR reporter, luminescence ratio (green luciferase fused to IkBa over red control in TMD8 lymphoma cells), 4 h
Method in brief: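 TMD8 ABC-DLBCL cells carrying doxycycline-inducible green luciferase fused to IkappaBalpha plus unfused red luciferase were exposed to compounds (up to 46 uM) for 4 hrs at 37C. Activity came from the overlap-corrected green/red luminescence ratio.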

[1] = measured here: CBR red luminescence, cell number
[2] = measured here: IkBa-CBG green luminescence

SMILES	AC50 [1]	AC50 [2]
O=c1cc(Cl)c(-c2ccccc2)nn1Cc1ccc(Cl)cc1	0.708 µM [rising, full curve, poor fit]	
CN(C(=O)CCc1nnc(CCCCc2ccccc2)o1)C1CC(C)(C)NC(C)(C)C1	8.91 µM [rising, partial curve, poor fit]	
Cc1ccnc(NC(=O)c2cc3ccccc3oc2=O)c1	1.58 µM [falling, full curve]	
COc1ccc(CN(C(=O)c2cc3ccccc3oc2=O)C2CCS(=O)(=O)C2)cc1 (centres undefined)	22.4 µM [rising, partial curve, poor fit]	
Cc1ccc(NC(=O)Cn2ncc3ccccc32)c(Cl)c1	5.01 µM [rising, full curve]	
CC(COc1ccccc1)N1CCC(CO)(CCc2ccccc2)CC1 (centres undefined)	35.5 µM [falling, single point]	
CN(C)CCCN(C(=O)CCOc1ccccc1)c1nc2c(F)cccc2s1	3.55 µM [falling, partial curve]	10 µM [rising, partial curve, poor fit]
NNc1nc2c(Cl)cccc2s1	8.2 µM [falling, partial curve, poor fit]	
O=C(Nc1cccc([N+](=O)[O-])c1)C1COc2ccccc2O1 (centres undefined)	2.82 µM [rising, full curve, poor fit]	
Cc1cccc(OCCOC(=O)Nc2ccccc2)c1	0.206 µM [rising, partial curve, poor fit]	
O=C(CSc1nnnn1-c1ccccc1)NCCCN1CCCC1=O	14.6 µM [rising, single point]	
CCOC(=O)NC(=O)/C(N=Nc1cccc(C(F)(F)F)c1)=C(\C)O	11.2 µM [rising, partial curve, poor fit]	
O=C(COC(=O)Cc1ccc(Cl)cc1)Nc1c(F)cccc1F	35.5 µM [rising, single point]	
CN1CCN(C(=O)CSc2nc(-c3cccs3)cc(-c3cccs3)c2C#N)CC1	35.5 µM [falling, single point]	
COc1cc2c(c(OC)c1OC)C(c1ccc(C)cc1)CC(=O)O2 (centres undefined)	20.6 µM [rising, partial curve]	11.6 µM [falling, partial curve]
COc1ccccc1/C=C/C(=O)Nc1cccnc1	10 µM [falling, partial curve]	
O=C(CN1CCN(C(=O)C2CCCO2)CC1)Nc1c(Cl)cccc1Cl (centres undefined)	35.5 µM [rising, single point]	
O=C(COc1ccc2ccccc2c1)Nc1cccc(C(=O)Nc2ccccc2C(=O)O)c1	20.6 µM [falling, partial curve]	
CC(=O)c1c(C)[nH]c(C(=O)COC(=O)CCOc2ccc(C)cc2)c1C	29.1 µM [falling, single point]	
COc1ccc(-c2cc3c(=O)n(CC(=O)NCc4ccc(C)cc4)ncn3n2)cc1	3.16 µM [rising, full curve, poor fit]	
O=C1NC(=Nc2ccccc2)S/C1=C\c1cccn1-c1ccccc1	0.146 µM [falling, full curve]	

A draw from above in order of length of the SMILES, descending:
SMILES	AC50 [1]	AC50 [2]
CN(C)CCCN(C(=O)CCOc1ccccc1)c1nc2c(F)cccc2s1	3.55 µM [falling, partial curve]	10 µM [rising, partial curve, poor fit]
O=C1NC(=Nc2ccccc2)S/C1=C\c1cccn1-c1ccccc1	0.146 µM [falling, full curve]	
COc1ccccc1/C=C/C(=O)Nc1cccnc1	10 µM [falling, partial curve]	

Remaining list, next part

SMILES	AC50 [1]	AC50 [2]
COc1ccc(/C=N/Nc2cn[nH]c(=O)c2Cl)cc1	3.55 µM [falling, partial curve, poor fit]	17.8 µM [falling, partial curve, poor fit]
O=C(Nc1ccccc1)c1cnc[nH]1	10 µM [falling, partial curve, poor fit]	
O=C(OCC(=O)N1CCc2ccccc2C1)c1ccc(OC(F)F)cc1	7.31 µM [rising, partial curve, poor fit]	
O=C(NCC(Cl)c1ccc2ccccc2c1)c1c(F)cccc1F (centres undefined)	3.16 µM [falling, full curve, poor fit]	
CN(CC(=O)Nc1ccc(F)c(F)c1F)C(=O)Cc1ccc2c(c1)OCCO2	11.2 µM [falling, partial curve, poor fit]	
O=C(COc1ccc(F)cc1Br)N1CCc2ccccc21	2.59 µM [rising, full curve, poor fit]	
O=C(CCc1ccc(S(=O)(=O)N2CCOCC2)cc1)Nc1nc(COc2ccccc2)cs1	5.17 µM [falling, partial curve, poor fit]	
O=C(NNC(=O)C1CC1)c1ccc(-c2ccccc2)cc1	25.9 µM [rising, single point]	
CCc1ccccc1Nc1nc(N)nc(COC(=O)CCS(=O)(=O)c2ccccc2)n1	16.4 µM [falling, single point]	
COc1ccc(/C=C2\CCC(C3CCCC3)C2=O)c(OC)c1 (centres undefined)	0.355 µM [rising, full curve, poor fit]	
Cc1ccc(-c2nnc(-c3cccs3)o2)cc1	0.501 µM [rising, full curve]	
N#Cc1cc2c([nH]c1=S)CCCC2	4.61 µM [falling, partial curve]	
O=C(c1cc(Cl)cc(Cl)c1)N1CCOCC1	14.6 µM [rising, partial curve, poor fit]	
C=CCOc1c(Cl)cc(CNc2ccc(N(C)C)cc2)cc1OC	14.1 µM [rising, partial curve]	20 µM [falling, single point]
COc1ccc(C(=O)NC(=C(Cl)Cl)S(=O)(=O)c2ccc(C)cc2)cc1	1 µM [falling, full curve, poor fit]	
COc1cc2c(cc1NC(=O)CSc1cccc[n+]1[O-])oc1ccccc12	18.4 µM [falling, partial curve, poor fit]	
O=c1[nH]nc(CNc2cccc(C(F)(F)F)c2)c2ccccc12	1.41 µM [rising, partial curve, poor fit]	
O=C(O)CCn1cc(/C=C\C(=O)c2ccc(Cl)cc2)c(-c2cccc(Br)c2)n1	14.6 µM [falling, partial curve, poor fit]	
O=C1c2ccccc2-c2onc3ccc(NCCCn4ccnc4)c1c23	29.1 µM [falling, single point]	
Nc1ccc2nc3c(=O)n(CCc4ccccc4)c(=O)[nH]c3nc2c1	11.2 µM [falling, partial curve]	
Cn1c(CCN2CCCCC2)nc2cc(NS(=O)(=O)c3ccccc3)ccc21	35.5 µM [falling, single point]	

SMILES	AC50 [1]	AC50 [2]
CCOc1ccc(NC(=S)NC(=O)c2c(Br)cnn2C)c([N+](=O)[O-])c1	1.64 µM [rising, partial curve]	
Cc1ccc(/C=N/NC(=O)Cc2ccc(O)cc2)s1	28.2 µM [falling, single point]	
Cc1c(C#N)c(=O)c(-[n+]2ccccc2)c([S-])n1-c1ccc(Cl)cc1	11.2 µM [rising, partial curve, poor fit]	
CCOCCn1c(CN(C)Cc2ccccc2)nc2c1c(=O)n(C)c(=O)n2C	8.91 µM [falling, partial curve, poor fit]	
CC(C)CCN1CC(O)=C(c2nc3ccccc3[nH]2)C1=N	6.51 µM [falling, single point]	
O=C(O)Cc1ccc(Nc2cnn(C34CC5CC(CC(CC(=O)O)(C5)C3)C4)c(=O)c2Cl)cc1	0.1 µM [rising, full curve, poor fit]	
Cc1c(NC(=O)c2c(O)c3ccccc3n(C)c2=O)c(=O)n(-c2ccccc2)n1C	12.6 µM [falling, partial curve]	
CC[C@@H](C)[C@H](CN[C@H](CNC)C(C)C)NC[C@@H](C)c1ccc(CC(C)C)cc1	7.94 µM [falling, partial curve, poor fit]	
Cc1ccc(C(=O)NC2=NCCS2)cc1Cl	1.26 µM [rising, full curve, poor fit]	
Cc1[nH]c2ccccc2c1/C=N/Nc1nc(Nc2ccc(F)cc2)nc(N2CCOCC2)n1	16.4 µM [falling, partial curve]	
O=C(N/N=C/c1ccc2ncccc2c1)c1ccco1	2 µM [falling, full curve]	
O=C(O)c1ccn(COc2ccc(Br)cc2)n1	0.708 µM [rising, full curve, poor fit]	
O=c1nccc(NCc2ccco2)[nH]1	3.16 µM [falling, partial curve, poor fit]	
Cc1occc1C(=O)NNC(=O)CN1C(=O)NC2(CCCCC2)C1=O	16.4 µM [rising, partial curve, poor fit]	
CCOc1ccc(Oc2ccc(S(=O)(=O)N3CCOCC3)cc2NC(=O)CCNC(C)=O)cc1	32.6 µM [rising, partial curve, poor fit]	
O=C(NC(=S)Nc1ccc([N+](=O)[O-])cc1O)C1CCCCC1	3.16 µM [falling, full curve]	
C=C(C)/C=N/NC(=S)Nc1ccc(S(=O)(=O)N2CCOCC2)cc1	35.5 µM [falling, single point]	
Cc1nc2sc3c(O)cc(=O)[nH]c3c2c(C)c1C	2.31 µM [falling, single point]	
NC(=S)N/N=C/c1ccc(-c2ccccc2)o1	0.631 µM [rising, full curve, poor fit]	31.6 µM [falling, single point]
N#CCSc1nc2sccc2c(=O)n1-c1ccccc1	1.58 µM [rising, full curve]	2.24 µM [falling, partial curve, poor fit]
Cc1sc2ncnc(NS(=O)(=O)c3ccc(Cl)cc3)c2c1C	9.2 µM [falling, partial curve]	
